Source: PubChem BioAssay AID504834 (National Center for Advancing Translational Sciences (NCATS), 2011)
Hit rate of the full screen: of about 320,000 compounds, about 22,000 (6.9%) were called active. This list was built around the results that the source calls inconclusive (neither active nor inactive); the mix of calls is not that of the screen. Calls come from the whole dose curve; as a rule, active = well fitted inhibition curve with a large enough effect; inconclusive = small, poorly fitted or top-dose-only effect, or another doubt; inactive = no such curve, though single readings can be large or run the other way. Potencies of inconclusive entries are doubtful fits and often do not repeat.
Potency is the fitted concentration of half-maximal effect.

Assay: Primary qHTS for delayed death inhibitors of the malarial parasite plastid, 96 hour incubation
Conditions: P. falciparum luciferase reporter growth; series mostly up to 28.7 µM
How it was run: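 P. falciparum expressing integrated firefly luciferase, in erythrocytes at 2% hematocrit, 0.05% parasitemia, incubated with compounds 96 h at 37 C, 5% CO2. Growth inhibition read as loss of luminescence; two-generation exposure targets delayed-death apicoplast inhibitors.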
With `COc1ccc(/C=C/C(=O)OCC(=O)N(C)c2c(N)n(Cc3ccccc3)c(=O)[nH]c2=O)cc1OC` the Potency was inconclusive: 18.5 µM [inhibitor, single point].
With `CCOC(=O)c1c(C)[nH]c(C(=O)N(C)CC(=O)Nc2ccc(OC)cc2)c1C` the Potency was inconclusive: 9.28 µM [inhibitor, partial curve, poor fit].
With `OCC[C@H]1C[C@@H](O)[C@H](O)[C@]2(CCc3ccccc3CO2)O1` the Potency was “inactive”.
For `Cc1cc(NC(=O)COC(=O)C2CC(=O)N(c3cccc(C)c3C)C2)no1` (stereo not given), the Potency was “inactive”.
For `Cc1cc([N+](=O)[O-])ccc1NC(=O)CSc1nnc(C)n1C`, the Potency was inconclusive: 10.4 µM [inhibitor, single point].
For `CC1(C)SC2c3ccccc3C(=O)N2[C@@H]1C(=O)NCc1ccco1` (stereo not given in full), the Potency was active: 5.22 µM.
In the case of `N#Cc1cc2c(nc1SCc1cccnc1)CCCC2`, the Potency is reported as inconclusive: 18.5 µM [inhibitor, single point].
For `CCOc1ccc(/C=N/OCC(=O)Nc2ccc(OCc3ccccc3)cc2)cc1OC`, the Potency was inconclusive: 18.5 µM [inhibitor, partial curve, poor fit].
With `COc1cccc(C(=O)O/N=C(\N)c2ccccn2)c1OC` the Potency was “inactive”.
With `CC(=O)c1ccc(OCc2cc(C(=O)N3CCOCC3)no2)cc1` the Potency was inconclusive: 13.1 µM [inhibitor, single point].
In the case of `CCN(CC(O)CON=C1c2ccccc2-c2ccccc21)S(=O)(=O)c1ccc(Cl)cc1` (stereo not given), the Potency is reported as inconclusive: 2.62 µM [inhibitor, full curve].
In the case of `Cc1cc(C)nc(SCCn2c(N(C)Cc3ccccc3)nc3c2c(=O)n(C)c(=O)n3C)n1`, the Potency is reported as inconclusive: 5.22 µM [inhibitor, partial curve, poor fit].
In the case of `Cc1ccc(CN2CCSc3ccc(C(=O)NCc4ccccn4)cc32)cc1`, the Potency is reported as inconclusive: 13.1 µM [inhibitor, partial curve, poor fit].
In the case of `COc1ccc(CCNC(=O)C2(c3ccccc3)CC2)cc1`, the Potency is reported as “inactive”.
For `Cc1cc(-c2nn(C)c(=O)c3ccccc23)ccc1CNC(=O)NC1CCCCC1`, the Potency was inconclusive: 0.329 µM [inhibitor, full curve, poor fit].
In the case of `O=C(CCCCCNC(=O)c1ccccc1)N/N=C/c1ccc(O)cc1O`, the Potency is reported as inconclusive: 18.5 µM [inhibitor, single point].
For `CCOc1ccc(S(=O)(=O)N2CCN(c3ccc(C)cc3C)CC2)cc1`, the Potency was inconclusive: 18.5 µM [inhibitor, single point].
With `COc1ccc(C2=NCCn3nc4ccccc4c32)cc1` the Potency was “inactive”.
With `CCOc1ncccc1C(=O)N1CCN(c2cccc(C)c2C)CC1` the Potency was inconclusive: 3.29 µM [inhibitor, full curve, poor fit].
For `CC(C)C(=O)NC(=S)Nc1ccc(S(=O)(=O)N2CCN(C)CC2)cc1`, the Potency was “inactive”.
For `Cc1cccc(NC(=O)CCc2ccc(C)o2)c1`, the Potency was inconclusive: 6.57 µM [inhibitor, partial curve].
For `O=C(NCc1ccccc1)C(=O)c1cn(CC(=O)N2CCOCC2)c2ccccc12`, the Potency was inconclusive: 18.5 µM [inhibitor, single point].
In the case of `O=C(Nc1cccc([N+](=O)[O-])c1)NC1CCCCCCC1`, the Potency is reported as “inactive”.
With `O=C(NCCS(=O)(=O)NCCCc1ccccc1)c1ccccc1` the Potency was “inactive”.
For `CC1CCN(c2ccc(NC(=O)Cc3ccccc3)cc2)CC1`, the Potency was inconclusive: 14.7 µM [inhibitor, partial curve, poor fit].
With `Cc1ccc2nc(NC(=O)C3CCCN(S(=O)(=O)c4cnc[nH]4)C3)sc2c1` (stereo not given) the Potency was inconclusive: 7.38 µM [inhibitor, partial curve, poor fit].
For `C/C(=N\NC(=S)NCc1ccccc1)c1cccc(Br)c1`, the Potency was “inactive”.
For `Cc1ccc(Cn2cnc3c(cnn3-c3ccc(F)cc3)c2=O)cc1`, the Potency was “inactive”.
With `CC(C)(C)OC(=O)N1CCC(c2c(C(=O)N3CCN(C(=O)c4ccco4)CC3)cnn2-c2cccc(Cl)c2)CC1` the Potency was “inactive”.
For `CN(C(=O)c1ccccc1C(=O)OCC(=O)c1ccccc1)c1ccccc1`, the Potency was active: 11.7 µM.
With `Cn1cc(Br)c(C(=O)N/N=C/c2cc3ccccc3nc2Cl)n1` the Potency was inconclusive: 18.5 µM [inhibitor, single point].
In the case of `COc1cc(C)nc(-c2csc(C)n2)n1`, the Potency is reported as inconclusive: 14.7 µM [inhibitor, partial curve, poor fit].
In the case of `O=C(COCc1nc2ccccc2c(=O)[nH]1)NC1CCCC1`, the Potency is reported as inconclusive: 0.828 µM [inhibitor, full curve, poor fit].
With `COc1ccc2[nH]c(O)c(N=NC(=O)c3ccc(NS(=O)(=O)c4cccs4)cc3)c2c1` the Potency was inconclusive: 1.47 µM [inhibitor, full curve].
With `Cc1ccnc(NS(=O)(=O)c2ccc(NC(=O)c3snnc3C)cc2)n1` the Potency was “inactive”.
In the case of `COc1cccc2cc(C(=O)CS(=O)(=O)c3ccc(C)cc3)c(=O)oc12`, the Potency is reported as active: 4.65 µM.
For `COc1ccc(NC(=O)CSc2nnc(NC(=O)C3CCC3)s2)c(OC)c1`, the Potency was inconclusive: 4.15 µM [inhibitor, partial curve].
For `CCOC(=O)CC(NC(=O)c1cccc2c1C(=O)N(Cc1cccnc1)C2)c1ccc(OC(C)C)cc1` (stereo not given), the Potency was inconclusive: 0.465 µM [inhibitor, full curve, poor fit].
In the case of `CCOC(=O)c1cnc2c(c(C)nn2CC)c1NCCN1CCOCC1`, the Potency is reported as active: 11.7 µM.
For `CCOc1ccc(-c2nnc(-c3ccccc3)o2)cc1`, the Potency was active: 2.08 µM.
With `Nc1nc(CN2CCCCCC2)nc(Nc2ccc(F)cc2)n1` the Potency was inconclusive: 13.1 µM [inhibitor, single point].
In the case of `C=C1CCN(C(C(=O)OC)C(C)C)S(=O)(=O)c2ccc(F)cc21` (stereo not given), the Potency is reported as inconclusive: 18.5 µM [inhibitor, single point].
In the case of `CN1CCN(S(=O)(=O)c2ccc(Sc3nnnn3-c3ccccc3)c([N+](=O)[O-])c2)CC1`, the Potency is reported as inconclusive: 11.7 µM [inhibitor, partial curve, poor fit].
For `CCOC(=O)C1CCN(C(=O)/C=C/c2ccccc2OC)CC1`, the Potency was “inactive”.
In the case of `O=C(NCc1ccccc1Cl)C1CCCN1S(=O)(=O)c1ccc(F)cc1` (stereo not given), the Potency is reported as inconclusive: 5.22 µM [inhibitor, single point].
